Assay results taken from patent EP4610277A1 (Daiichi Sankyo Company, Limited, dated 2025).

Experiments:
Experiment in all cases: flow cytometry, KIR-Fc on scFv-K562 cells
[1] = molecular target: T1, recombinant KIR2DS1 (extracellular domain-Fc-Avi, in-house) (human)
T1 construct: In-house; IL-2 signal peptide left out; also called soluble KIR2DS1

[2] = molecular target: T2, recombinant KIR2DS2 (extracellular domain-Fc-Avi, in-house) (human)
T2 construct: In-house; IL-2 signal peptide left out; also called soluble KIR2DS2

[3] = molecular target: T3, recombinant KIR2DS4 (extracellular domain-Fc-Avi, in-house) (human)
T3 construct: In-house; IL-2 signal peptide left out; also called soluble KIR2DS4

Measured: binding result

B1: membrane-type a2DL2/3-DS11 scFv (scFv)
scFv: DYKDDDDKGSGQVQLVQSGAEVKKPGSSVKVSCKASGGTFSSYAISWVRQAPGQGLEWMGGIIPIFGTANYAQKFQGRVTITADESTSTAYMELSSLRSEDTAVYYCARLVSSGWYDPSDYWGQGTTVTVSSGGGGSGGGGSGGGGSQSVLTQPPSASGTPGQRVTISCSGSSSNIGSNTVNWYQQLPGTAPKLLIYSNNQRPSGVPDRFSGSKSGTSASLAISGLQSEDEADYYCLTWDDSLTAFVFGTGTKLTVLALSNSIMYFSHFVPVFLPAKPTTTPAPRPPTPAPTIASQPLSLRPEACRPAAGGAVHTRGLDFACDIYIWAPLAGTCGVLLLSLVITLYCNH
notes: On K562 cells
no binding (tested: 0.1 µM): all assays above
